Values of other authors, collected in patent US20240391876A1 (priority 2021, published 2024).
At least one compound was matched to its structure with a doubt left.

Test system: COVID-19
Conditions: at 48 hours; MR-5 cells; read-out: EC50 against COVID-19; cited from earlier work

For CCC(CC)COC(=O)[C@H](C)N[P@](=O)(OC[C@H]1O[C@@](C#N)(c2ccc3c(N)ncnn23)[C@H](O)[C@@H]1O)Oc1ccccc1 [Remdesivir, remdesivir], the EC50 is given as 770 nM.
